We go through 69 sequences from PubChem BioAssay AID1508600 (Functional Genomics Laboratory (NCATS/FGL), 2020).

Out of some 53,000 sequences screened, about 3,700 (7%) were called active.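 The calls were made as follows: active = gene knockdowns whose robust z-score for IL-1 alpha signal is at least 2 or at most -2, so actives lie on both sides; inactive = the rest.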 The list shows a part of the results.

The assay is described as follows: Components of the Cytosolic LPS Sensing Pathway: Gene Identification via Genome-wide siRNA Screen.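 Also: robust z of the log signal after scaling to non-targeting control siRNA wells of the plate.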 Conditions: RAW264.7 macrophages, IL-1a HTRF, actives lie on both sides, screened at 100 nM (by protocol), cells primed 5 h with Pam3CSK4 first. In outline: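 Mouse macrophage line RAW264.7 is transfected with siRNA (100 nM final), grown 48h, primed with TLR ligand Pam3CSK4 5 h and given intracellular LipidA 24 h. IL-1a in supernatant is read by HTRF and viability by luminescence.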
A general note: Time-resolved FRET reads energy transfer from a long-lived donor to a nearby acceptor.
With GGAAGAAAAGAAGCUUUUGTT against Palmd, the z-score is inactive: 0.343. As to GGCAAUUCUUGACAAGAAUTT against Rbms3, the z-score was inactive: -0.903.

Take GGGCUGGAAUUCUUUUGUGTT against Cwh43: the z-score was inactive: 0.0804.

Consider GGGUGAGCAGUACAUUCAATT against Plekhg6, for which the z-score was active: 2.73. As to CCGUUUCUGUAUGACCUGGTT against Rbbp7, the z-score is inactive: -0.121. The figure for GGAGCUGGUGUUGAGUGAGTT against Slfnl1 is inactive: -1.81. The result for GCUGUAUCCUGUAGUGAGUTT against Spsb1 reads inactive: -0.221. The result for GCAAUCCAAGCCAAACUCCTT against Usp24 reads inactive: 0.163.

Regarding GAUGGUCAUCCUUCCUUUATT against Olfr341, the z-score is inactive: -0.737. The figure for GGUUGGGCAAACCUGUCAATT against Olfr1121 is inactive: 0.62. The figure for CGAUCUCAGAGGAUAAGUUTT against Nxf3 is inactive: -0.48. The result for CGAGGUGGCUACAGAUCAATT against Tspyl2 reads inactive: 0.512. As for GCCCACAUCAGCUAUCGUUTT against Atf2, the z-score was inactive: -0.787.

With GGCCAGAUUAACACUUACUTT against Eif3h, the z-score is inactive: 0.798. The figure for GGACCACUCGCUUUUGGGUTT against Irf2bpl is inactive: 0.938.

Regarding CGUUACACGUACUUCAAGGTT against Wnt3a, the z-score is inactive: 0.252. The figure for CGGUGUGAUGCGGAUUUUUTT against Cacna2d2 is inactive: -0.112; for GGUUGUGACUACACUAUGGTT against Zfp456 it is inactive: -1.7.

As for CCUGUGAAUACUUUCACUCTT against Bok, the z-score was inactive: 0.115. The result for CCGUGGUAAUGUGAACUAUTT against Cln6 reads inactive: 0.0977. The figure for CCUGUUGAAGUUUCUGGAATT against Tmbim4 is inactive: 0.744.

As to GCCAUUUGUCCACAAAAUGTT against Ces2g, the z-score is active: -2.06. The figure for GACUAUGUGGUCUACUCGUTT against Drd4 is active: 2.86. For GCACCUGUGGAGUUCUCUATT against Trp73, the z-score is inactive: 0.742. Turning to CCUUCUUUUACCGUCUCAATT against Gpr31b, the z-score was inactive: -0.69. Regarding GGCUGUGCAAGCAAAACCUTT against Mad1l1, the z-score is inactive: -1.43. The figure for GGUGCAGAACAAUUCGGUUTT against Tnfsf4 is inactive: 0.612; for GCCAGCAUAAAUAUACUUUTT against Apol10a it is inactive: -0.0597; for CCAACGAACCUUAUUUCUUTT against Lman2 it is inactive: 0.318. The result for GCUAUUCUUUUUCUGCUUUTT against Olfr893 reads inactive: -0.118.

For GCUGUGUAUAAACAUCCUATT against Pigp, the z-score was inactive: 1.76. Take GGAGCAGUGGGAAAUUCCATT against Ice2: the z-score was inactive: -0.0391. Consider GGCCUUCUUUGAUGUGAAGTT against Sbf1, for which the z-score is inactive: 0.108. Turning to CAACACCAUUCCUAAAUCATT against Cabs1, the z-score is inactive: -1.33.

For GCUUAGGGUGUUGAAAGGCTT against AI854703, the z-score was inactive: -0.393.

As for GGAGGAAGCUGUCAAGGAUTT against Ano1, the z-score is inactive: -0.585.

Regarding GGACAUGGAGACUCUGAAGTT against Ptov1, the z-score was inactive: 1.46.

In the case of GCCUUACUUCGGAGUGCUATT against Olfr606, the z-score was active: -4.78. Consider CCAUCCAUCUAUCUUCACCTT against Nanos2, for which the z-score was inactive: -0.964.

GGGACAAGGCAGAAAUUUUTT against Tcf15: the z-score is inactive: 0.968. The result for GGAAAGUUGGACCUUCUGATT against Adamts6 reads active: 2.35.

For CGCAGAAAGUUGUUAACCCTT against Svop, the z-score is inactive: 0.0514. In the case of GGGCUCACUCCAAAUCUCUTT against Macir, the z-score was inactive: -0.0514. The result for GCCCAUAUCUUCUUCACUGTT against Stxbp2 reads inactive: -0.169; that for GGAUGAGUUUUUCUAUAGCTT against Cyp4f39, inactive: -0.138; that for GGAUGUGGUUCGAGUAUGGTT against Pou5f1, inactive: 1.79. GACAAAGAGUCCCUGAACCTT against Emp3: the z-score was inactive: 0.514. The result for GGAGAAUAAAACUUCCAGATT against Urod reads inactive: -0.436; that for GCGGAUUCAAAACCUUAGUTT against Drp2, inactive: 0.299; that for “GGGCCUCCUGUAAACAUCCTT against D630039A03Rik”, inactive: 0.884.

For GAAAAUAGAUAAAAGGACCTT against Defb6, the z-score is inactive: 1.11. The figure for GCAACUUUGUAGCUCCUUCTT against Srebf2 is inactive: 0.118; for CCUCAAUUAUACCAAGAUUTT against Mapre3 it is inactive: -1.28. Regarding GACAAUGCGUGCAACGAUATT against Grcc10, the z-score is inactive: 1.13. CCGUACCGAAUCCUUUAUCTT against Tbc1d9: the z-score is inactive: 0.564. The result for CGAUUUUCUACAGAAAUACTT against Smpd3 reads inactive: 1.93. The result for GCAUAUCGUUUUAUGGAUGTT against Olfr1043 reads inactive: 0.138. The figure for CCUAAUUUCCCAGCACUUUTT against Acsf2 is inactive: -0.187. For CCAAAAAUUGUGGCUUUUGTT against Alas2, the z-score is inactive: 1.89. The result for GGCCUGACUUUUUGUCUUATT against Klhl15 reads inactive: 1.09; that for CCAUUCCUACAGCAUGCGUTT against Slc27a1, inactive: 0.523; that for GGGACUUUGUAAACAGUUUTT against Eci2, inactive: 1.61. The figure for CCGCUAAGUUGGUAGACUCTT against Grp is inactive: 0.245; for GGCCCUGUGCACUAAAGUGTT against Bax it is inactive: 0.28. The result for GCAGUUAUCCGUAUUUAAATT against Ctnnbl1 reads inactive: 1.18.

GGGCAAAUGUUCUCAAAAATT against Dlst: the z-score was inactive: 0.814. The result for GGGUGUUUACUAACUCUGGTT against Hdac3 reads inactive: -1.94; that for GGGUAUUCUGUGUGUUACUTT against Hsd3b1, active: 2.06; that for GCAUAUCGUUCAAGUUUACTT against Sorcs1, inactive: 1.85.
